Experimental findings from article PMC5865676 are described below.

Chains of the proteins cited; added tags and fusions are not shown.
UniProt P36873: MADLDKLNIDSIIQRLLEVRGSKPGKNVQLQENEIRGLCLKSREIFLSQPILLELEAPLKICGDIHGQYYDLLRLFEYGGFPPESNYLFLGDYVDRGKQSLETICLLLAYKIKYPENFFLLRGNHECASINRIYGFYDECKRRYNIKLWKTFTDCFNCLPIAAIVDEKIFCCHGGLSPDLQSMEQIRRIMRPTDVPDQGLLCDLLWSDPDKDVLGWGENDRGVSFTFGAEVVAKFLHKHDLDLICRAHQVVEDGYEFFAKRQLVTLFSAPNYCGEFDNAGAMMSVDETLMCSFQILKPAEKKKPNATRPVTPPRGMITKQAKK
UniProt Q13263: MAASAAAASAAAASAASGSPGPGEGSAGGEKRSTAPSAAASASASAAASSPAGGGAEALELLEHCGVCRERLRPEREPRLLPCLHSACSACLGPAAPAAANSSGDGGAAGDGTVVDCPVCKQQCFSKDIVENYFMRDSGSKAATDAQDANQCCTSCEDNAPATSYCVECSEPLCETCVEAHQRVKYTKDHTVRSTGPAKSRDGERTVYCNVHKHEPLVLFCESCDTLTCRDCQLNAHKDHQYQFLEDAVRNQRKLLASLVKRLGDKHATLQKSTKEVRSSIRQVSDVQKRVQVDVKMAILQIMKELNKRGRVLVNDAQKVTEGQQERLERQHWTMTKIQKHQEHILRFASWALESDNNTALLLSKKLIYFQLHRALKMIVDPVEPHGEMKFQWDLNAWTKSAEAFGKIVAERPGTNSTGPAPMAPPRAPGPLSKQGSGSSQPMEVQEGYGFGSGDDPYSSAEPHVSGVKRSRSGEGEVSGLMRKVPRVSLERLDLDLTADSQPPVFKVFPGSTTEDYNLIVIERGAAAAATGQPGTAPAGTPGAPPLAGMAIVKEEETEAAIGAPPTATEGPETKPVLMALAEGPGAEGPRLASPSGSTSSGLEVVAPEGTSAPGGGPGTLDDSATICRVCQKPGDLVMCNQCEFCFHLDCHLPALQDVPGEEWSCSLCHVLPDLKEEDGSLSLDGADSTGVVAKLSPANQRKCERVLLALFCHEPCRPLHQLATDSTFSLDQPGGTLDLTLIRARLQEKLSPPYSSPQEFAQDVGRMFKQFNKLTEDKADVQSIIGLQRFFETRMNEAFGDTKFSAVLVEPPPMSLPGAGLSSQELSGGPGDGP
UniProt P19474: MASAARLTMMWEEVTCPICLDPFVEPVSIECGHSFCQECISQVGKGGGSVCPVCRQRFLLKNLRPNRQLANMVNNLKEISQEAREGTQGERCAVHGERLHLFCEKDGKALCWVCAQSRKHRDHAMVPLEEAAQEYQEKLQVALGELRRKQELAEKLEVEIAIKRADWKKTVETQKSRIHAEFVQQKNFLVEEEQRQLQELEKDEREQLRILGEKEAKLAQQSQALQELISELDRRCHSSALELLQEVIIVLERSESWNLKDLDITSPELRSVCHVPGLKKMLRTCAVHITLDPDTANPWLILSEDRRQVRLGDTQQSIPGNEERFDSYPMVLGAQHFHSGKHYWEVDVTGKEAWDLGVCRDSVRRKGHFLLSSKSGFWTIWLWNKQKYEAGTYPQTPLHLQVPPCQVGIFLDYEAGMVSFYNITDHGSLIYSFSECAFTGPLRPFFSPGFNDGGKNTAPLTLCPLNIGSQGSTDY
UniProt P62136: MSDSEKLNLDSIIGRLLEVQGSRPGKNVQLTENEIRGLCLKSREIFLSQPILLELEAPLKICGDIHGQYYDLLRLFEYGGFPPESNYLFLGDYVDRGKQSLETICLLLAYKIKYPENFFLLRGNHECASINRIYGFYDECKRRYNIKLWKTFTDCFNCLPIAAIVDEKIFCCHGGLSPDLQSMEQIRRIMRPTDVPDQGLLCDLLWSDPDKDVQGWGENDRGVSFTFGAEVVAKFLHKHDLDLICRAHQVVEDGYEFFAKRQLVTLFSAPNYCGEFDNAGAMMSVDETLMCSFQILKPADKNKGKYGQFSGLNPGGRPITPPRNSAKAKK
UniProt O00571: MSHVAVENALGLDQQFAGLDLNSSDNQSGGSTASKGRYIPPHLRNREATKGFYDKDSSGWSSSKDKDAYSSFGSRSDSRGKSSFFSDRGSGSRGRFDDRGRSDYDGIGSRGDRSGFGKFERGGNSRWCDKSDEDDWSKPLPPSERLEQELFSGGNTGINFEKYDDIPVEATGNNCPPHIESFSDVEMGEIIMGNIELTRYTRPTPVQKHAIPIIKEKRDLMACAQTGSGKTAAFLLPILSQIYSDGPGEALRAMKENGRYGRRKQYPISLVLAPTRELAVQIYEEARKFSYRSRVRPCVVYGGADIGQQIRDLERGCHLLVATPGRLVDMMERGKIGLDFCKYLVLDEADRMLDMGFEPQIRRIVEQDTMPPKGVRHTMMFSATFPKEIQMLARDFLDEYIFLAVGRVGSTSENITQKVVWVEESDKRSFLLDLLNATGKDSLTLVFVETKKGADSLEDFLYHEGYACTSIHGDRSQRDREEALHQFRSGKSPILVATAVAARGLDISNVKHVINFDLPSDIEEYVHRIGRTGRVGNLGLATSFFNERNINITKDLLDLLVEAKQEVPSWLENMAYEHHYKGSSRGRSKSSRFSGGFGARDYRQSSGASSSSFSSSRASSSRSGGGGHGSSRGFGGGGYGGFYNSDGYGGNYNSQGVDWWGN
UniProt P62140: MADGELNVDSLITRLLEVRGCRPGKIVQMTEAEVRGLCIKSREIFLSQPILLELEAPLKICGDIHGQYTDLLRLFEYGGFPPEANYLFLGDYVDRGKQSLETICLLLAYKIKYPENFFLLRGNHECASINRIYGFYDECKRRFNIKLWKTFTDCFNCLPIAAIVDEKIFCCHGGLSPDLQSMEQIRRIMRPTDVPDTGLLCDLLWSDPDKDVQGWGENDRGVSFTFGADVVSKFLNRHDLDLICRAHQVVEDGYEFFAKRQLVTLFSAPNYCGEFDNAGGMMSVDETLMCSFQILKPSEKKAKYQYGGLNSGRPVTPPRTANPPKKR

Like-named read-outs stand apart in the source and are kept apart here. No constants are given. Whether binding was seen depends on the method and setting. Binding seen in cells or lysates may run through a third protein. Some entries that bind do so weakly or less than the wild type.

The target of assay [1] is T1, Transforming growth factor-β (TGFβ)-activated kinase 1 (TAK1), endogenous (human (endogenous in AGS)) (UniProt O43318).
T1 sequence: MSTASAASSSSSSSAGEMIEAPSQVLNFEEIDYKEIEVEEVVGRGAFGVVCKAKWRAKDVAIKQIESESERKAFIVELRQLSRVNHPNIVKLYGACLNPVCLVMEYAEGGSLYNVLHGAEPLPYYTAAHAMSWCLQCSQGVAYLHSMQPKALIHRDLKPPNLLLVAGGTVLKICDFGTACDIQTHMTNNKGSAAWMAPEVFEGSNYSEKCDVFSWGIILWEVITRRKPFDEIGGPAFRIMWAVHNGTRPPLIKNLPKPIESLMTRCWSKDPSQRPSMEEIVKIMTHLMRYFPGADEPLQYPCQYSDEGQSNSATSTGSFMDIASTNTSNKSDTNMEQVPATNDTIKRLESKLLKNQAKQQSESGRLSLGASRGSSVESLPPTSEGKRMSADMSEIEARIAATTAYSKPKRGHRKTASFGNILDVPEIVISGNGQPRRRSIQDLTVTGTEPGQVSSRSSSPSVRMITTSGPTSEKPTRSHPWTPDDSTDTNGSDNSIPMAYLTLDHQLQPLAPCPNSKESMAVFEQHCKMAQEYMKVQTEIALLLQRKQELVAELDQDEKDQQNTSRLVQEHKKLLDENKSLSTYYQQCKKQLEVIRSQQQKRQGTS
The assay can be described thus: co-IP.

The target in assay [2] is T2, TAK1 overexpressed from pCMV-TAK1 (UniProt O43318).
T2 sequence: T1 sequence
The experiment in a line: co-IP; TAK1 overexpressed in AGS cells, lysate incubated with TAK1 antibody, isotype control antibody or no antibody, immunoblot (Figure 4A). (In general: In western blotting, separated proteins are transferred to a membrane and probed.)

Assay [3] has as its target T1, Transforming growth factor-β (TGFβ)-activated kinase 1 (TAK1), endogenous (human (endogenous in AGS)). The assay can be described thus: co-IP. The source holds these as a separate data set.
Assay [4] concerns the target T3, TAK1-binding protein TAB2 (human (endogenous in AGS)) (UniProt Q9NYJ8).
T3 sequence: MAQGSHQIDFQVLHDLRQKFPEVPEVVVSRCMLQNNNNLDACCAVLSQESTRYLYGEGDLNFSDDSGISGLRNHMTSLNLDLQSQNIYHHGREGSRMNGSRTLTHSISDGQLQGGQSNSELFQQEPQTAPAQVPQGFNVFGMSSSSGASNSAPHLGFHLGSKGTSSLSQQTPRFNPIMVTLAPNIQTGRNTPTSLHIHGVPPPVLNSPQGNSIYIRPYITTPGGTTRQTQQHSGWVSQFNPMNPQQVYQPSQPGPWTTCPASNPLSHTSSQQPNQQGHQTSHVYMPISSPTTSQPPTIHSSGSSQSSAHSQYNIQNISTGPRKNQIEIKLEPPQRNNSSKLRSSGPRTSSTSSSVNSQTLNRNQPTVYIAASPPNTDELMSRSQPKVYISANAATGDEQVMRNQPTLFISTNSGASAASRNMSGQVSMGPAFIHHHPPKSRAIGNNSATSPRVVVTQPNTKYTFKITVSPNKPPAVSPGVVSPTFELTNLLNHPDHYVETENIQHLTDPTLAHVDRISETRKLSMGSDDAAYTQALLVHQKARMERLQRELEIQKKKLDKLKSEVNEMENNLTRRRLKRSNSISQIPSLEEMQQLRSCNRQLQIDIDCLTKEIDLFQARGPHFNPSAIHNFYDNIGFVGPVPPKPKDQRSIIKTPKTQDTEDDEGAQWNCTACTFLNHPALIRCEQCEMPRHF
The experiment in a line: co-IP.

The target in assay [5] is T4, TAK1-binding protein TAB3 (human (endogenous in AGS)) (UniProt Q8N5C8).
T4 sequence: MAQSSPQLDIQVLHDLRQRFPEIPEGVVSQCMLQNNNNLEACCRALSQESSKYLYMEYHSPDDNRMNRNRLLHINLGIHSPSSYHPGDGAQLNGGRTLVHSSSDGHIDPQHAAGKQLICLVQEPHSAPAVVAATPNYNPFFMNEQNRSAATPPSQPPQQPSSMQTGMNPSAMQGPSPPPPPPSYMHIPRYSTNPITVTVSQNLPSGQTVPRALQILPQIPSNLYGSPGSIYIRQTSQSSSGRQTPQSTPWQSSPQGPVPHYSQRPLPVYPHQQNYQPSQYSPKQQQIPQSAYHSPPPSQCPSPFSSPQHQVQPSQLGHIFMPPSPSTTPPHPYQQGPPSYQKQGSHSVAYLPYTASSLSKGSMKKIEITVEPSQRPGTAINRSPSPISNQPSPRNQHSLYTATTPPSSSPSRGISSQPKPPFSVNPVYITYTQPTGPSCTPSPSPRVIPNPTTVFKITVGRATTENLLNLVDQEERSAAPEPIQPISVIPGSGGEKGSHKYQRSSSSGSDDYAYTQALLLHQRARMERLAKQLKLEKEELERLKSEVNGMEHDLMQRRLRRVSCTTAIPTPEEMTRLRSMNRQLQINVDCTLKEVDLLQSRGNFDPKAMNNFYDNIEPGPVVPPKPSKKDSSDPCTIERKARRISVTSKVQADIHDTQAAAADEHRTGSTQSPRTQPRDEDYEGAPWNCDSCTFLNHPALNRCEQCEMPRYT
The assay can be described thus: co-IP.

Consider “PPP1CC, catalytic subunit of serine/threonine-protein phosphatase 1 (PP1) (from UniProt P36873 1-323) (enzyme)”, for which the binding entry in assay [1] is “binds”. In the case of “Tripartite motif 28 (TRIM28) (from UniProt Q13263 1-835)”, the binding entry in assay [1] and in assay [2] was “binds” each time.

As for “Tripartite motif (TRIM)21 (from UniProt P19474 1-475)”, the binding entry in assay [1] and in assay [2] was “binds” each time. Consider “PPP1CA, catalytic subunit of serine/threonine-protein phosphatase 1 (PP1) (from UniProt P62136 1-330) (enzyme)”, for which the binding entry in assay [1] and in assay [2] was “binds” in each case. As for “Asp-Glu-Ala-Asp (DEAD)-box helicase DDX3 (from UniProt O00571 1-662) (enzyme)”, the binding entry in assay [1] and in assay [2] was “binds” in each case. Turning to “PPP1CB, catalytic subunit of serine/threonine-protein phosphatase 1 (PP1) (from UniProt P62140 1-327) (enzyme)”, the binding entry in assay [1] is reported as “binds”.

B1: TAK1-binding protein TAB2 (protein, UniProt Q9NYJ8 1-693)
chain: T3 sequence
For B1, the binding entry in assay [3] was “binds”.

B2: CDC37 (protein, UniProt Q16543 1-378)
chain: MVDYSVWDHIEVSDDEDETHPNIDTASLFRWRHQARVERMEQFQKEKEELDRGCRECKRKVAECQRKLKELEVAEGGKAELERLQAEAQQLRKEERSWEQKLEEMRKKEKSMPWNVDTLSKDGFSKSMVNTKPEKTEEDSEEVREQKHKTFVEKYEKQIKHFGMLRRWDDSQKYLSDNVHLVCEETANYLVIWCIDLEVEEKCALMEQVAHQTIVMQFILELAKSLKVDPRACFRQFFTKIKTADRQYMEGFNDELEAFKERVRGRAKLRIEKAMKEYEEEERKKRLGPGGLDPVEVYESLPEELQKCFDVKDVQMLQDAISKMDPTDAKYHMQRCIDSGLWVPNSKASEAKEGEEAGPGDPLLEAVPKTGDEKDVSV
For B2, the binding result in assay [2] and in assay [3] was “binds” throughout.

B3: Transforming growth factor-β (TGFβ)-activated kinase 1 (TAK1), endogenous (enzyme, UniProt O43318 1-606)
chain: T1 sequence
For B3, the binding entry in assay [4] and in assay [5] was “binds” each time.

B4: TAK1-binding protein TAB1, endogenous (protein, UniProt Q15750 1-504)
chain: MAAQRRSLLQSEQQPSWTDDLPLCHLSGVGSASNRSYSADGKGTESHPPEDSWLKFRSENNCFLYGVFNGYDGNRVTNFVAQRLSAELLLGQLNAEHAEADVRRVLLQAFDVVERSFLESIDDALAEKASLQSQLPEGVPQHQLPPQYQKILERLKTLEREISGGAMAVVAVLLNNKLYVANVGTNRALLCKSTVDGLQVTQLNVDHTTENEDELFRLSQLGLDAGKIKQVGIICGQESTRRIGDYKVKYGYTDIDLLSAAKSKPIIAEPEIHGAQPLDGVTGFLVLMSEGLYKALEAAHGPGQANQEIAAMIDTEFAKQTSLDAVAQAVVDRVKRIHSDTFASGGERARFCPRHEDMTLLVRNFGYPLGEMSQPTPSPAPAAGGRVYPVSVPYSSAQSTSKTSVTLSLVMPSQGQMVNGAHSASTLDEATPTLTNQSPTLTLQSTNTHTQSSSSSSDGGLFRSRPAHSLPPGEDGRVEPYVDFAEFYRLWSVDHGEQSVVTAP
As for B4, the binding result in assay [3] is recorded as “binds”.

B5: TAK1-binding protein TAB3 (protein, UniProt Q8N5C8 1-712)
chain: T4 sequence
For the molecule B5, in assay [3], the binding entry is recorded as “binds”.
